The target of assay [1] is GW182 (Glycine-Tryptophan Protein Of 182 KDa) (human (endogenous in Caco2)) (UniProt Q8NDV7). Briefly: proximity ligation; Duolink PLA on confluent, fixed Caco2 cells plated on laminin, fibronectin, collagen I or collagen IV; pairs of primary antibodies to the endogenous proteins; counterstained for E-cadherin; signals counted at junctions, in cytoplasm and nucleus.
Assay [2] concerns the target T1, p120 catenin (human (endogenous in Caco2)) (UniProt O60716).
T1 sequence: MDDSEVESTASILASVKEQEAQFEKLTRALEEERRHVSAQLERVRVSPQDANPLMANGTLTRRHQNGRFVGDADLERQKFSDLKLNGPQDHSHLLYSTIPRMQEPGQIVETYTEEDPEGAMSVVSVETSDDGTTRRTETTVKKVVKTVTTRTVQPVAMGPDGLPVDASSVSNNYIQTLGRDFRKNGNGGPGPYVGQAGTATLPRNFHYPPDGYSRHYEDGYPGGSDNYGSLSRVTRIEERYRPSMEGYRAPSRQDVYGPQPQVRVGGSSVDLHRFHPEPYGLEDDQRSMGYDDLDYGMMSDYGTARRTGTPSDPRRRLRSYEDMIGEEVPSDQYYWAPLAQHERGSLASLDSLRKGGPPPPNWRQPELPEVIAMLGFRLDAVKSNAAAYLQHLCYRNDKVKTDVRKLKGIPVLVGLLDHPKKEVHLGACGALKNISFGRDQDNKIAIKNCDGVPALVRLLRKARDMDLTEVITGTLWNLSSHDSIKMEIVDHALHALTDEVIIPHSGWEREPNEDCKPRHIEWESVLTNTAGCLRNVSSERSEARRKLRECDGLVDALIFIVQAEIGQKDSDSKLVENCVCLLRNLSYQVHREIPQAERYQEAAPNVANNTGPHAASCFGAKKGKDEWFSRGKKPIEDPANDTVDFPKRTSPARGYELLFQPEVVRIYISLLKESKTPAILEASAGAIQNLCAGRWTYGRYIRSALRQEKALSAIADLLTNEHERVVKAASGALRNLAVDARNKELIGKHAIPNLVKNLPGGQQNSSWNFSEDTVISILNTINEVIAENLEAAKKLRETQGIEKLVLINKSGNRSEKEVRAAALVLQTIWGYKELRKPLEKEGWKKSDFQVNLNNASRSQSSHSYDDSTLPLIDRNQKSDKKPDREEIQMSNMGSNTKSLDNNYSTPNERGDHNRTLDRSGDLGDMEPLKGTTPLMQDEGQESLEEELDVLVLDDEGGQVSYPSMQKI
Described as above.

By UniProt entry, the sequences of proteins in these tests, tags left out.
UniProt Q8NDV7: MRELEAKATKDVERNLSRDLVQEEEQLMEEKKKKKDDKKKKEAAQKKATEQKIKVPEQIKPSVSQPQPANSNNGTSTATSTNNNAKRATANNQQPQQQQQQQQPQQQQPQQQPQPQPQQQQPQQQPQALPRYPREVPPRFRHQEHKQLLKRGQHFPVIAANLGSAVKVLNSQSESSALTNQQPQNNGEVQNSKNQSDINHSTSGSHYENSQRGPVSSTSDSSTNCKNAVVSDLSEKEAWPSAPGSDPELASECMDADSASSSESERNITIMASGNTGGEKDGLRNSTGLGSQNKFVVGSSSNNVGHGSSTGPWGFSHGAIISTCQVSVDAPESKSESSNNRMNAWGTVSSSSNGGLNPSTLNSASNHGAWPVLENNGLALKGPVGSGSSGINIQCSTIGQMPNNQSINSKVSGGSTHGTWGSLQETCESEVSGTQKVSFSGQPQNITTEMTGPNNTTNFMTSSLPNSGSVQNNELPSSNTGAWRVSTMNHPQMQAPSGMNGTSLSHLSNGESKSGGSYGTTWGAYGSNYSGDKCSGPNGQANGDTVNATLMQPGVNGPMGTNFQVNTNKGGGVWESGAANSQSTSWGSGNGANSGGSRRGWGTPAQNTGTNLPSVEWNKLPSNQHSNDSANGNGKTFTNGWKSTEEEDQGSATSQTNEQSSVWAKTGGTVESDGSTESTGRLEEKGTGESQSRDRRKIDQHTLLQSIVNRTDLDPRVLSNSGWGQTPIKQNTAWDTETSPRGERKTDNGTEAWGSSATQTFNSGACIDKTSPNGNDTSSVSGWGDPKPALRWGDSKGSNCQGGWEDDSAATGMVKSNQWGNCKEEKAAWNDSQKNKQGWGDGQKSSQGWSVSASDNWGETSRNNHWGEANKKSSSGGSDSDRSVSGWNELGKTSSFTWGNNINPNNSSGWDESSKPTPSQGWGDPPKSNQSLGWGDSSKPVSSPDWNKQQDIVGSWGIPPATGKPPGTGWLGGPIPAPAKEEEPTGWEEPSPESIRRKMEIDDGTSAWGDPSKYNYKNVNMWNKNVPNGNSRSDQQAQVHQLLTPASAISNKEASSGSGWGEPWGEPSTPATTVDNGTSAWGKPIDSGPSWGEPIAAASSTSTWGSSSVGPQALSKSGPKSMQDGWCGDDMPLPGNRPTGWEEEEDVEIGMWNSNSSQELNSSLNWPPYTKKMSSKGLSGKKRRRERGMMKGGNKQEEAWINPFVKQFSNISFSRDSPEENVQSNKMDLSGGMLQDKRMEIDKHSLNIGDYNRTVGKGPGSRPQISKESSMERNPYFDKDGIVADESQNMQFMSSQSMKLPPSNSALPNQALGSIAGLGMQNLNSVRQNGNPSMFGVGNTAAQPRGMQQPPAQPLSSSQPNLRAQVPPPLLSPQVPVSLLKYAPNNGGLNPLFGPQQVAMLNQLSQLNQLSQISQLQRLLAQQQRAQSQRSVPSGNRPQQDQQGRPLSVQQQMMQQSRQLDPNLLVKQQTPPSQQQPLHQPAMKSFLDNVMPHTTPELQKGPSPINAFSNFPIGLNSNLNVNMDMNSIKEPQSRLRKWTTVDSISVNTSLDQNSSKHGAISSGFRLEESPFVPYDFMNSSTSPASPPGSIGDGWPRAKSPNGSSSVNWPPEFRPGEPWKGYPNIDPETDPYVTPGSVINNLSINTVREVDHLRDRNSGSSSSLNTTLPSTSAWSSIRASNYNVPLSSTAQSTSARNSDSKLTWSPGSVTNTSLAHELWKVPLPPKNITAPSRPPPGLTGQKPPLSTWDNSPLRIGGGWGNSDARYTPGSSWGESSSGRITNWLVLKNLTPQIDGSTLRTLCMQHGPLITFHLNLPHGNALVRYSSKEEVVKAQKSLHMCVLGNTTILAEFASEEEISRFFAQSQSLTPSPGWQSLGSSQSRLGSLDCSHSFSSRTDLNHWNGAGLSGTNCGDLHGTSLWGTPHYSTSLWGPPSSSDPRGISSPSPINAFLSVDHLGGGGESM
UniProt Q9UKV8: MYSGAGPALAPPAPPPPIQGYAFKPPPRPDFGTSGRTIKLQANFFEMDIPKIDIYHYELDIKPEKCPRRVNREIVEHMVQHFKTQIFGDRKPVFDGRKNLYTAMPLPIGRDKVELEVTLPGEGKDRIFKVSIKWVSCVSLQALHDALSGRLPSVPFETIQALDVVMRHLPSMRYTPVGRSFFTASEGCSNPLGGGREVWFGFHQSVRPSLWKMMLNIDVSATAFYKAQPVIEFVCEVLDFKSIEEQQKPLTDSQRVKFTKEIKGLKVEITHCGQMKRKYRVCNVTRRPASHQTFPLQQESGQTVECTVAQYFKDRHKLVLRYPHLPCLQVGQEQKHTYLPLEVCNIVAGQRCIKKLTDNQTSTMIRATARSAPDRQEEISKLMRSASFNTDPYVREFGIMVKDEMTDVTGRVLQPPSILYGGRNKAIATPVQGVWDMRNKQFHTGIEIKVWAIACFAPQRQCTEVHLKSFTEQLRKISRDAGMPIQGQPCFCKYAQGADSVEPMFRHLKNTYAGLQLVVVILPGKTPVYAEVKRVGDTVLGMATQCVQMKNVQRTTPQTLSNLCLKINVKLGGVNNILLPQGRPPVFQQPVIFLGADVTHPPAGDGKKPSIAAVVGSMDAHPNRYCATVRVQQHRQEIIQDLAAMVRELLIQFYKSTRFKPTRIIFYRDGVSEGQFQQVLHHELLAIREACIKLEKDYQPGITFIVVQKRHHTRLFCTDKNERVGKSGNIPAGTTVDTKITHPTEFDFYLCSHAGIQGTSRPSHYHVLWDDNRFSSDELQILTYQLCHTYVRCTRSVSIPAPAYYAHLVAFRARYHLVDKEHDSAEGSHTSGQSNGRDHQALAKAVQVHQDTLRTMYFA

No constants are given. Whether binding was seen depends on the method and setting. In cells and extracts the contact can be indirect. Some results given as binding are weak or reduced against the parent protein; the word gives no strength.

For “Argonaute 2 (AGO2) (from UniProt Q9UKV8 1-859)”, the binding result in assay [1] is recorded as “binds”.

B1: PLEKHA7 (Pleckstrin homology domain-containing family A member 7) (protein, UniProt Q6IQ23 1-1121)
chain: MAAATVGRDTLPEHWSYGVCRDGRVFFINDQLRCTTWLHPRTGEPVNSGHMIRSDLPRGWEEGFTEEGASYFIDHNQQTTAFRHPVTGQFSPENSEFILQEEPNPHMSKQDRNQRPSSMVSETSTAGTASTLEAKPGPKIIKSSSKVHSFGKRDQAIRRNPNVPVVVRGWLHKQDSSGMRLWKRRWFVLADYCLFYYKDSREEAVLGSIPLPSYVISPVAPEDRISRKYSFKAVHTGMRALIYNSSTAGSQAEQSGMRTYYFSADTQEDMNAWVRAMNQAAQVLSRSSLKRDMEKVERQAVPQANHTESCHECGRVGPGHTRDCPHRGHDDIVNFERQEQEGEQYRSQRDPLEGKRDRSKARSPYSPAEEDALFMDLPTGPRGQQAQPQRAEKNGMLPASYGPGEQNGTGGYQRAFPPRTNPEKHSQRKSNLAQVEHWARAQKGDSRSLPLDQTLPRQGPGQSLSFPENYQTLPKSTRHPSGGSSPPPRNLPSDYKYAQDRASHLKMSSEERRAHRDGTVWQLYEWQQRQQFRHGSPTAPICLGSPEFTDQGRSRSMLEVPRSISVPPSPSDIPPPGPPRVFPPRRPHTPAERVTVKPPDQRRSVDISLGDSPRRARGHAVKNSSHVDRRSMPSMGYMTHTVSAPSLHGKSADDTYLQLKKDLEYLDLKMTGRDLLKDRSLKPVKIAESDTDVKLSIFCEQDRVLQDLEDKIRALKENKDQLESVLEVLHRQMEQYRDQPQHLEKIAYQQKLLQEDLVHIRAELSRESTEMENAWNEYLKLENDVEQLKQTLQEQHRRAFFFQEKSQIQKDLWRIEDVTAGLSANKENFRILVESVKNPERKTVPLFPHPPVPSLSTSESKPPPQPSPPTSPVRTPLEVRLFPQLQTYVPYRPHPPQLRKVTSPLQSPTKAKPKVEDEAPPRPPLPELYSPEDQPPAVPPLPREATIIRHTSVRGLKRQSDERKRDRELGQCVNGDSRVELRSYVSEPELATLSGDMAQPSLGLVGPESRYQTLPGRGLSGSTSRLQQSSTIAPYVTLRRGLNAESSKATFPRPKSALERLYSGDHQRGKMSAEEQLERMKRHQKALVRERKRTLGQGERTGLPSSRYLSRPLPGDLGSVC
In the case of B1, the binding result in assay [2] is given as “binds”.
